Among the data in publication doi:10.1101/2024.09.19.614015 (bioRxiv, 2024) are binding values, retold here.

Protein sequences, listed by entry. Tags and fused reporters are not part of them.
UniProt P63871: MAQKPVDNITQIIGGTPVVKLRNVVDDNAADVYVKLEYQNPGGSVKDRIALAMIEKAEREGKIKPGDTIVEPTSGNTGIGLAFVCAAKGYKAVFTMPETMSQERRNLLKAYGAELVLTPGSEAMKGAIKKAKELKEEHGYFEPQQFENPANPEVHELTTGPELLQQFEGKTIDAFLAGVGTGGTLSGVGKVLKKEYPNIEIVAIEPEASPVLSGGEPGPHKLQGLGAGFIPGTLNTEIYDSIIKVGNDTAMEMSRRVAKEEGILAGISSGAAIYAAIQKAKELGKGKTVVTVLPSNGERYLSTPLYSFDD

Read-outs that look alike come from different tables or passages of the source. These are yes or no findings as the source states them, for the method shown. Some results given as binding are weak or reduced against the parent protein; the word gives no strength.

Holding throughout (test): crystal structure
Experiment [1] deals with Staphylococcus aureus O-acetyl-L-serine sulfhydrylase (CysK) (S. aureus) (UniProt P63871).
For experiment [2] the target is unchanged. This is another data set of the same source.
Experiment [3] has the same target. The source holds these as a separate data set.

Take “Staphylococcus aureus O-acetyl-L-serine sulfhydrylase (CysK) (from UniProt P63871 1-310) (enzyme)”: the binding result in experiment [1] and in experiment [2] was “binds” throughout.

As for YMFYI [CymR 5], the binding entry in experiment [3] is reported as “binds”.

Consider EDLDGYMFYI [CymR 10 (C-terminal decapeptide of S. aureus cysteine metabolism regulator CymR)], for which the binding entry in experiment [3] is “binds”.
